These results are taken from US6653533 (PURDUE RESEARCH FOUNDATION, dated 1997).

This assay addresses T1, Bicoid (UniProt P09081 2-160, limits assumed).
T1 construct: Control bait expressed from vector pEG202; also called arbitrary bait Bicoid (in pEG202)
T1 sequence (looked up): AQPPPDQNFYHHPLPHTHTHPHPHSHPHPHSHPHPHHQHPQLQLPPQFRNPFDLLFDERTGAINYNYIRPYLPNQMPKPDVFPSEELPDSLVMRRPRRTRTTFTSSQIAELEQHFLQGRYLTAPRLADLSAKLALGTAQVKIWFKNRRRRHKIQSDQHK
Put plainly: yeast two-hybrid (LEU2 and lacZ reporters), Bicoid bait in pEG202, prey in pJG4-5. Here is the method: Figure 2: FIG. 2 sets forth results of the Experiment described in Example 1 herein. Briefly, EGY48 yeast cells containing a prey of Pti4, Pti5 or Pti6 (in pJG4–5), and a bait of Pto, pto or Bicoid (in pEG202) were grown on galactose Ura⁻His⁻Trp⁻X-Gal medium. The plates were incubated at 30° C. for three days and photographed. Four independent, representative colonies are shown for each bait/prey combination.
Yeast strains carrying the Pto bait and a prey of Pti4, Pti5 or Pti6 grew in the absence of leucine, indicative of the LEU2 reporter gene activation. When grown on X-Gal plates, these yeast cells were blue as a result of the lacZ reporter gene activation. As determined by the intensity of blue color, the strength of interaction of Pto with these three preys is in the order of Pti6>Pti4>Pti5.

B1: Pti4 (other)
chain: MDQQLPPTNFPVDFPVYRRNSSFSRLIPCLTEKWGDLPLKVDDSEDMVIYGLLKDALSVGWSPFNFTAGEVKSEPREEIESSPEFSPSPAGTTAAPAAETPKRRHYRGVRQRPWGKFAAEIRDPAKNGARVWLGTYETAEEAAIAYDKAAYRMRGSKAHLNFPHRIGLNEPEPFELRRKGRAIQGPASSSGNGSMKRRRKAVQKCDGEMASRSSVMQVGCQIEQLTGVHQL
notes: Tested as a yeast two-hybrid prey expressed from vector pJG4-5; also called prey of Pti4 (in pJG4-5)
For B1, the binding result was “no binding”.
